Test results published in publication PMC9847679, “The anti-breast cancer stem cell properties of gold(I)-non-steroidal anti-inflammatory drug complexes” (Chemical Science, 2022).

System: HMLER-shEcad cells
Assay: Cellular uptake and fractionation (ICP-MS gold content)
Type: cell-based, human
Details: 0.25 μM for 24 h, fractionation

COc1ccc2c(c1)c(CC(=O)[O][Au][PH](c1ccccc1)(c1ccccc1)c1ccccc1)c(C)n2C(=O)c1ccc(Cl)cc1 [complex 1]
internalised gold detected in the cytoplasm: 80%
